Measurements taken from US20240392024A1.
No constants are given. Whether binding was seen depends on the method and setting. Some entries that bind do so weakly or less than the wild type.

Chains of the proteins cited; added tags and fusions are not shown. Residues count along the entry.
UniProt P20333, residues 23-257: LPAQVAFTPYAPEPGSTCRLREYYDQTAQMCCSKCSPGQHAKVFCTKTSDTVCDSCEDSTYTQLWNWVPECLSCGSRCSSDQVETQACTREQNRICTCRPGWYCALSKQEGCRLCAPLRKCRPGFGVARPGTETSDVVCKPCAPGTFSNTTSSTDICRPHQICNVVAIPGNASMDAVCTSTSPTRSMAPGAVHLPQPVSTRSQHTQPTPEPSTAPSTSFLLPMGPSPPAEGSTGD

B1: anti-human TNFR2 mouse monoclonal antibody 13F5 (antibody, V domains shown)
VH: QVQLQQSGAELVRPGTSVKMSCKASGYTFTNYWIGWTKQRPGHGLEWIGDIFPGGDFTNYNEKFKGKATLTADKSSSTAYLQFSSLTSEDSAIYYCSRRRFTTIVAPGFDYWGQGTTLTVSS
VL: QLVLTQSSSASFSLGASAKLTCTLSSQHSMYTIEWYQQQPLKPPKFVMELKKDGSHSTGDGIPDRFSGSSSGADRYLNISNIQPEDEAIYICGVGDTIKEQFVYVFGGGTEVTVL
B2: anti-human TNFR2 mouse monoclonal antibody 16D2 (antibody, V domains shown)
VH: EVQLQQSEPELVKPGASVKIPCKASGYTFTDYNMDWVKQSHGKSLEWIGDINPNNGVTIYNQKFKGKATLTVDKSSSTAYMELRSLTSEDTAVYYCVILEYFDYWGQGTTLTVSS
VL: DIVMTQSTSSMSVSLGDTVSITCHASQGISSNIGWLQQKPGKSFKGLIYHGTKLEDGVPSRFSGSGSGADYSLTISSLESEDFADYYCVQYAQFPRTFGGGTKLEIK
B3: anti-human TNFR2 mouse monoclonal antibody 18A2 (antibody, V domains shown)
VH: DVQLQESGPGLVKPSQSLSLTCSVTGYSITSGYYWNWIRQFPGNKLEWMGYISYDGSNNYNPSLKKRISITRDTSKNQFFLKLNSVTTEDTATYYCTGGSGTSWGQGTLVTVSA
VL: DIVMTQSHKFMSTSVGDRVSITCKASQDVTTGIAWYQQKPGQSPKLLIYSASNRFTGVPDRFTGSGSGTDFTFTISSVQAEDLAVYFCQQHYSTPFTFGSGTKLEIQ
B4: anti-human TNFR2 mouse monoclonal antibody 7F2 (antibody, V domains shown)
VH: QVTLKESGPGILQPSQTLSLTCSFSGFSLNTFGLGVGWIRQPSGKGLEWLTHIWWNDDKYYNPALKSRLTISRDTSENLVFLKIANVDTADTATYYCARIEGLRRFDYWGQGTTLTVSS
VL: DIQMTQSPSSLSASLGGKVTITCKTSQDINKFIAWYQHKPGKGPRLLIHYTSTLQPGIPSRFSGSGSGRDYSFSISDLEPEDIATYYCLQYANLWAFGGGTKLEIK
B5: anti-human TNFR2 mouse monoclonal antibody 12E12 (antibody, V domains shown)
VH: EVQLQQSGAELVKPGASVKLSCTVSGFNIKDFYIHWVKQRPEQGLEWIGRVDPEDGNTEYAPNFQDRATMTTDTSSNTAYLQLSSLTSVDTAVYYCSTWDGFSYFDYWGLGTTLTVSS
VL: QAVVTQESALTTSPGETVTLTCRSSTGPVTTNNYANWVQEKPDHLFTGLIGGTNDRAPGVPARFSGSLIGDKTALTITGTQTEDEAVYFCALWYRNHWVFGGGTKLTVL
B6: anti-human TNFR2 mouse monoclonal antibody 27F6 (antibody, V domains shown)
VH: EVQLQQSGTVLARPGASVKMSCKTSGYTFTSYWMHWVKQRPGQGLEWIGTIYPGNSDTSYNQKFKGKAKLTAVTSASTAYMELNSLTNEDSAVFYCTRENLLLRSYFFDYWGQGTTLTVSS
VL: DIVMTQSPASLAVSLGQRATISCKASQSVDYDGDSYLNWYQQKPGQPPKLLIYAASNLPSGIPARFSGSGSGTDFTLNIHPVEEEDAATYYCQQSNEDPRTFGGGTKLEIK
B7: anti-human TNFR2 mouse monoclonal antibody 29A1 (antibody, V domains shown)
VH: QVQLQQSGAEVVRPGASVTLSCKASGYTFSDYEMHWVKQTPVHGLEWIGAIDPETGDTAYNQKFKDKARVTADKSSSTAYMELRSLTSEDSAVYYCTRDIHYYGSSLSYFDYWGQGTTLTVSS
VL: DIVMTQSQKFMSTSVGDRVSVTCKASQNVGTNVAWYQQKPGQSPKVMIYSASYRYSGAPDRFTGSGSGTDFTLTVNNVQSEDLAEYFCQQYKTYPYTFGGGTKLEIE

Biological target: recombinant human TNFR2 antigen (Kangdai, batch number A100114U) (human) (UniProt P20333)
Assay: ELISA, coated recombinant human TNFR2

binding, binds:
B1
B2
B3
B4
B5
B6
B7
